Experimental data as given in article PMC4480908.
No constants are given. Whether binding was seen depends on the method and setting. In cells and extracts the contact can be indirect.

Molecular target: EZH2 (human (endogenous in Caco-2 and HuVEC)), Q15910
Experiment: co-IP; Classic IP kit (Pierce); 1000 ug pre-cleared total cell lysate of Caco-2 cells or HuVECs incubated overnight at 4 °C with 10 ug anti-SIRT1 (Abcam ab7343) or anti-EZH2 (R&D AF4767) antibody; captured on protein A/G Sepharose; Western blot for SIRT1 or EZH2; both directions, both cell lines
Conditions: remark: other sources report otherwise

binding: no binding
B1: SIRT1, Q96EB6 1-747 (protein)
chain: MADEAALALQPGGSPSAAGADREAASSPAGEPLRKRPRRDGPGLERSPGEPGGAAPEREVPAAARGCPGAAAAALWREAEAEAAAAGGEQEAQATAAAGEGDNGPGLQGPSREPPLADNLYDEDDDDEGEEEEEAAAAAIGYRDNLLFGDEIITNGFHSCESDEEDRASHASSSDWTPRPRIGPYTFVQQHLMIGTDPRTILKDLLPETIPPPELDDMTLWQIVINILSEPPKRKKRKDINTIEDAVKLLQECKKIIVLTGAGVSVSCGIPDFRSRDGIYARLAVDFPDLPDPQAMFDIEYFRKDPRPFFKFAKEIYPGQFQPSLCHKFIALSDKEGKLLRNYTQNIDTLEQVAGIQRIIQCHGSFATASCLICKYKVDCEAVRGDIFNQVVPRCPRCPADEPLAIMKPEIVFFGENLPEQFHRAMKYDKDEVDLLIVIGSSLKVRPVALIPSSIPHEVPQILINREPLPHLHFDVELLGDCDVIINELCHRLGGEYAKLCCNPVKLSEITEKPPRTQKELAYLSELPPTPLHVSEDSSSPERTSPPDSSVIVTLLDQAAKSNDDLDVSESKGCMEEKPQEVQTSRNVESIAEQMENPDLKNVGSSTGEKNERTSVAGTVRKCWPNRVAKEQISRRLDGNQYLFLPPNRYIFHGAEVYSDSEDDVLSSSSCGSNSDSGTCQSPSLEEPMEDESEIEEFYNGLEDEPDVPERAGGAGFGTDGDDQEAINEAISVKQEVTDMNYPSNKS
